Substitutions are numbered along the chain they refer to. Results are given in words; binding and its absence hold for the method and conditions named. Some entries that bind do so weakly or less than the wild type.
B1: B31 chimeric mAb (VHH)
VHH: QVQLVESGGGLVQAGGSLRLSCAASGDIFSIMFWYRQPQGKQREYVAHITSNGRTNYADSVTGRFTISRGNNDNTMYLQMDNLKPQDTAVYYCAADDATNTRTYWGQGTQVTVSS
notes: Alpaca VHH tested as 'chimeric mAb' expressed in 293F cells, purified by protein G, detected with anti-human IgG and captured on Protein A; also called B31 chimeric antibody
B2: B16 chimeric mAb (VHH)
VHH: QVQLVESGGGLVQPGGSLRLSCAASGFTLDYYAIGWFRQAPGKEREGVSCISSSDGSTYYADSVKGRFTISRDNAKNTVYLQMNSLKPEDTAVYYCATDTTTRCPIWSYYVESDYWGQGTQVTVSS
notes: Alpaca VHH tested as 'chimeric mAb'
B3: B210 chimeric mAb (VHH)
VHH: B2 VHH with Q1E, F27L, T28S, D55G, G56R, Y59N, V93D, Y109N
notes: as for B2
B4: B125 chimeric mAb (VHH)
VHH: B2 VHH with T28A, L29F, D30S, Y31D
notes: as for B2
B5: B164 chimeric mAb (VHH)
VHH: EVQLVESGGGLVQAGGSLRLSCAASGSIFSYMFWYRQPQGKQREYVAHITSGGRTNYADSVTGRFTISRGNNDNTMYLQMNNLKPEDTAVYYCAADDAVYTDRTYWGQGTQVTVSS
notes: as for B2

Molecular target: T1, cynomolgus 4-1BB-His protein (cynomolgus, UniProt A9YYE7 24-186)
T1 construct: Recombinant His-tagged protein; also called cyno 4-1BB antigen; not shown: His tag
T1 sequence: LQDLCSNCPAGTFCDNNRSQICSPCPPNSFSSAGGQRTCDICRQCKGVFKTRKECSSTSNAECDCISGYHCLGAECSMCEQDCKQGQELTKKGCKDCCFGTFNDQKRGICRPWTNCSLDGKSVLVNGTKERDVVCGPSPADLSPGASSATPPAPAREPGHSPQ
Assay: ELISA, plate coated with cynomolgus 4-1BB-His

Binder | binding
B1 | binds
B2 | binds
B3 | binds
B4 | binds
B5 | binds

From US20240417482A1 (CONCEPT TO MEDICINE BIOTECH, published 2024)
